PubChem BioAssay AID504804 | Drosophila RNAi Screening Center – 2011

Test: 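Fly genes whose loss lessens doxorubicin-driven cell death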 (primary screen)
System: Drosophila Kc cells
Knock-down reagent: long dsRNA against Drosophila genes, 0.5 µg dsRNA per well
Time to read-out: 96 h (48 h knock-down, then 48 h drug)
Conditions: doxorubicin 5 µg/ml for 48 h, added 48 h after dsRNA
Measurement: 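Luminescent ATP counts per replicate, not normalised, reflecting viable cells after 48 h dsRNA knock-down followed by 48 h of 5 µg/ml doxorubicin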
Direction: raw ATP luminescence: higher = more viable cells, protection from doxorubicin
Hit rule: 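Active when both duplicate wells lie at least 2 SD above the plate mean and protection is confirmed by rescreening and independent dsRNAs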
The screen tested about 19,000 reagents; shown is an unselected part of those with a known target gene and a result. Of all reagents, 47 (0.25%) are marked active. 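Signals are raw, not normalised; exact z-scores behind calls not deposited; actives needed confirmation, so some wells reaching 2 SD are inactive.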 Unmarked entries are inactive. A plus sign joins genes that one reagent is predicted to hit.

gene	amplicon	SD above plate mean	raw ATP luminescence, replicate 1	raw ATP luminescence, replicate 2
CG1360	DRSC06406		46513	79973
CG8219	DRSC10971		87567	85537
Faa (Fumarylacetoacetase)	DRSC08451		49063	39843
Muc68E (Mucin 68E)	DRSC09146		1.58e5	1.98e5
CG42818 + Ca-Ma2d	DRSC01963		54263	61447
NKCC (sodium potassium chloride cotransporter)	DRSC12140		59803	18060
NKCC (sodium potassium chloride cotransporter)	DRSC12311		64610	66630
Abl (Abl tyrosine kinase)	DRSC09661		66287	36403
CG17486	DRSC07752		61347	58537
CAH3 (Carbonic anhydrase 3)	DRSC17776		55760	55320
P32	DRSC06988		53427	62753
ppk7 (pickpocket 7)	DRSC03236		24427	20623
Mtr3	DRSC10953		67820	68407
lds (lodestar)	DRSC16988		68330	81130
CG31219	DRSC15140		57600	58700
Apc2 (Adenomatous polyposis coli 2)	DRSC14115		44233	62160
rols (rolling pebbles)	DRSC09873		76933	59763
rols (rolling pebbles)	DRSC10254		86237	82797
rols (rolling pebbles)	DRSC10536		76843	69860
CG31268	DRSC13203		2.46e5	2.31e5
Nepl5 (Neprilysin-like 5)	DRSC03241		97810	61123
sxc (super sex combs)	DRSC04911		62883	69053
kek1 (kekkon 1)	DRSC03551		69510	62600
lqfR (liquid facets-Related)	DRSC14703		42820	34220
lqfR (liquid facets-Related)	DRSC14704		56420	48080
Lam (Lamin)	DRSC03359		26360	35807
Roc1a (Regulator of cullins 1a)	DRSC18483		48750	19740
SP1029	DRSC16848		38980	46110
mmd (mind-meld)	DRSC19672		1.16e5	98580
mmd (mind-meld)	DRSC19673		3.14e5	2.69e5
mmd (mind-meld)	DRSC20161		3.91e5	2.92e5
CG31296	DRSC13092		2.05e5	1.91e5
CG3823	DRSC18325		34830	38550
Ktl (Kctd12-like)	DRSC14270		34860	46870
Tpc2	DRSC04322		28400	64030
CadN2 + CG42830	DRSC03062		58213	70037
CadN2 + CG42830	DRSC03063		59090	70920
CadN2 + CG42830	DRSC03064		65503	70537
CG7443	DRSC16244		67280	55240
pk (prickle)	DRSC06178		44447	77283
pk (prickle)	DRSC07664		55230	74773
robo1 (roundabout 1)	DRSC04712		44427	51303
CG42538	DRSC09412		77810	91750
CG32633	DRSC18987		2.52e5	2.37e5
ppk29 (pickpocket 29)	DRSC04205		41133	60063
CG6428	DRSC18402		28250	41530
CG4630	DRSC06874		52937	51507
CG17270	DRSC15209		43663	45130
CG33325	DRSC12699		71663	79667
CG11584	DRSC19408		3.15e5	2.52e5
Megf8 (Multiple EGF like domains 8)	DRSC03058		1.07e5	81070
Rrp6	DRSC16223		36197	19837

Next part (8 carried over from the part before).
gene	amplicon	SD above plate mean	raw ATP luminescence, replicate 1	raw ATP luminescence, replicate 2
ppk29 (pickpocket 29)	DRSC04205		41133	60063
CG6428	DRSC18402		28250	41530
CG4630	DRSC06874		52937	51507
CG17270	DRSC15209		43663	45130
CG33325	DRSC12699		71663	79667
CG11584	DRSC19408		3.15e5	2.52e5
Megf8 (Multiple EGF like domains 8)	DRSC03058		1.07e5	81070
Rrp6	DRSC16223		36197	19837
Obp83b (Odorant-binding protein 83b)	DRSC12360		54017	52727
CG31041	DRSC13951		2.13e5	2.12e5
Ipo9 (Importin 9)	DRSC16813		61740	63040
CG4607	DRSC18375		42800	50870
CtsL2 (Cathepsin L2)	DRSC06978		47553	46640
CG7488	DRSC16250		95800	69390
fzr2 (fizzy-related 2)	DRSC04280		64463	62150
CG14265	DRSC18591		60660	47510
CG14275	DRSC02379		35800	66450
sol (small optic lobes)	DRSC20587		2.80e5	2.90e5
AkhR (Adipokinetic hormone receptor)	DRSC03329		99997	76683
hiro (highroad)	DRSC08564		87750	75930
RpS11 (Ribosomal protein S11)	DRSC07289		82207	57583
CG34148 + P5CDh2	DRSC13519		1.80e5	2.18e5
betaggt-I (beta subunit of type I geranylgeranyl transferase)	DRSC03494		23517	21957
CG31601	DRSC03678		81677	87620
CG4101	DRSC10400		39803	36310
ppk26 (pickpocket 26)	DRSC10991		75387	88637
CG8066	DRSC16374		84950	96260
Elp2 (Elongator complex protein 2)	DRSC06095		64877	1.07e5
CG30158	DRSC04956		98833	80407
CG30158	DRSC04974		53527	71867
CG30158	DRSC04975		47430	91910
CG30158	DRSC05012		46380	98457
CG3698	DRSC11749		27860	32037
Crtc (CREB-regulated transcription coactivator)	DRSC10578		36787	33240
mtSSB (mitochondrial single stranded DNA-binding protein)	DRSC17005		75680	84180
5-HT1B (5-hydroxytryptamine (serotonin) receptor 1B)	DRSC05769		19957	14313
RN-tre (Related to the N terminus of tre oncogene)	DRSC07521	2 to 3 SD above plate mean		
Trmt112 (tRNA methyltransferase subunit 11-2)	DRSC11685		92190	70677
et (eye transformer)	DRSC19582		3.17e5	3.11e5
Cyp4ac2 (Cytochrome P450 4ac2)	DRSC03303		27990	33863
